Measurements reported in US20210025901A1 (CALIFORNIA INSTITUTE OF TECHNOLOGY, published 2021).
No constants are given. Whether binding was seen depends on the method and setting. Some results given as binding are weak or reduced against the parent protein; the word gives no strength. Where a sequence is shown, tags or fusion partners need not be part of it.

Experiments:
[1] = biological target: T1, Full-length His-tagged IL-17F protein (ab167911, Abcam) (human) (UniProt Q96PD4); assay: sandwich ELISA: biotinylated ligand on NeutrAvidin plate, His-tagged IL-17F titrated up to 800 nM, anti-His-AP detection, fluorescence
T1 sequence: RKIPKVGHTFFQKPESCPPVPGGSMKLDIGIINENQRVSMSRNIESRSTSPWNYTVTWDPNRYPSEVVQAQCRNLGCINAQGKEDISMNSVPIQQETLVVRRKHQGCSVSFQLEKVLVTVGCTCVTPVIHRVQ

[2] = biological target: T1, Full-length His-tagged IL-17F protein (ab167911, Abcam) (human); assay: point ELISA IL-17F vs IL-17A, FIG. 4B
[3] = biological target: T2, Full-length His-tagged IL-17A protein (ab166882, Abcam) (human) (UniProt Q16552); assay: point ELISA: ligand on NeutrAvidin plate, His-tagged protein at 100 nM, anti-His-AP detection, subtracted fluorescence
T2 sequence: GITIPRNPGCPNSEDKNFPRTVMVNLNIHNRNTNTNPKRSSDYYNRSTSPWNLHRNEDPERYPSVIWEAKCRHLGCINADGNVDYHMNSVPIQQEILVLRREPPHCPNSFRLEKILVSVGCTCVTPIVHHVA

[4] = biological target: T1, Full-length His-tagged IL-17F protein (ab167911, Abcam) (human); assay: as above
[5] = biological target: T2, Full-length His-tagged IL-17A protein (ab166882, Abcam) (human); assay: point ELISA, IL17F or IL17A at 100 nM, mean subtracted fluorescence; protocol not described for this panel
[6] = biological target: T1, Full-length His-tagged IL-17F protein (ab167911, Abcam) (human); assay: as above
[7] = biological target: T2, Full-length His-tagged IL-17A protein (ab166882, Abcam) (human); assay: point ELISA, His-IL-17A at 100 nM

Measured: binding

B1: Biotin-PEG3-Cy(RSYNK)(SEQ ID NO:28) (peptide)
peptide: RSYNK
modifications: Cy( ) = triazole cyclization via flanking Pra and Az4 residues; Biotin-PEG3
binds: all assays above

B2: Biotin-PEG3-Cy(KKGWP)(SEQ ID NO:23) (peptide)
peptide: KKGWP
modifications: Cy( ) = triazole cyclization via flanking Pra and Az4 residues; Biotin-PEG3
not listed: [5] | [6]
binds: all other assays above
